Results are given in words; binding and its absence hold for the method and conditions named. Binding seen in cells or lysates may run through a third protein. Some binding calls cover weakened binding; strength is not graded here.
Columns and labels:
[1] = target: GST-FMRP-1-200 Y96L (human) (UniProt Q06787); experiment: pull-down; 20 ug GST-tagged protein pre-coupled to glutathione Sepharose 4B, lysate of HEK293T cells (endogenous proteins or Flag-tagged proteins 36 h after transfection; 100 mM NaCl, 20 mM Tris-HCl pH 7.4, 5 mM MgCl2, 0.5% Igepal CA-630), 4 h at 4 C, with or without RNase A 0.5 mg/ml; immunoblotting; only the target purified
[2] = target: GST-FMRP-1-200 F32L (human) (UniProt Q06787); experiment: as above

Sequences of proteins named here, by UniProt entry; tags and fusion partners are left off. A change or cut given only in a name is not applied to a line headed by its entry.
UniProt Q8ND56: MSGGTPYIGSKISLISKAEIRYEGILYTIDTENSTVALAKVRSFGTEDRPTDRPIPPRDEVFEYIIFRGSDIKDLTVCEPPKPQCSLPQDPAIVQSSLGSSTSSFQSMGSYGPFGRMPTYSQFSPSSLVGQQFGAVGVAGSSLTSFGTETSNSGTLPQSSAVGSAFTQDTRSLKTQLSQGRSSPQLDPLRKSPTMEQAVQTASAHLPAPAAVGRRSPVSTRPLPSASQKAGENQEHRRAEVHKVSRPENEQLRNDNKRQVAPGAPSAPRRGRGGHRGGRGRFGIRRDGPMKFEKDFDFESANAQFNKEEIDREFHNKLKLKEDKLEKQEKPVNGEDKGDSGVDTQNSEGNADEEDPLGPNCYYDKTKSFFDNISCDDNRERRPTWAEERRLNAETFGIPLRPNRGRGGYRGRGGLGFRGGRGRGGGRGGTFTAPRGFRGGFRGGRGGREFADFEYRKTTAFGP

Row | binding [1] | binding [2] | Substance
1 | binds | binds | Flag-LSM14A (from UniProt Q8ND56-1 1-463)
2 | binds | binds | Flag-PLK1 (from UniProt P53350 1-603)
3 | binds | binds | LSM14A (endogenous) (from UniProt Q8ND56 1-463)

Source: article PMC5430443
